This note sets out measurements from paper PMC2660581.

The chains behind the UniProt entries cited, without tags or fusion partners. Where a name states a change or a piece, a line headed by the entry shows the natural chain unless it says otherwise. A line that says so, or that is headed by a name, gives the form on record, which may keep a tag or linker. Residues count along the entry.
NOD2 CARD (1+2) (Q9HC29, residues 1-267): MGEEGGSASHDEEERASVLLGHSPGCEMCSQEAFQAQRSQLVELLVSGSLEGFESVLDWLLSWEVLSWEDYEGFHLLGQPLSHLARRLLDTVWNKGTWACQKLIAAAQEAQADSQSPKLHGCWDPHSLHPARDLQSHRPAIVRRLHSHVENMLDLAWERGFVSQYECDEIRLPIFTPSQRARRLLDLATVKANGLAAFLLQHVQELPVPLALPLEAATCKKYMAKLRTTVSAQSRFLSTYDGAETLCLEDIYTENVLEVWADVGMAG
NOD2 1–163 (Q9HC29, residues 1-163): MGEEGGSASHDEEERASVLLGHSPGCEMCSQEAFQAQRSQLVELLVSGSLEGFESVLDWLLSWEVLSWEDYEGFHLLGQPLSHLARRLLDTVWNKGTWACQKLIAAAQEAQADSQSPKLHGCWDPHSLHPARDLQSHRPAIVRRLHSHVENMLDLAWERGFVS
NOD2 1–135 (Q9HC29, residues 1-135): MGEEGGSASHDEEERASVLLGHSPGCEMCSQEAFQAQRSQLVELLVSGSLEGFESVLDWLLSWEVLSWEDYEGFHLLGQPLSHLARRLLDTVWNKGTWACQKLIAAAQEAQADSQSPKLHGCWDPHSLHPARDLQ
NOD2 CARD (1) (Q9HC29, residues 1-116): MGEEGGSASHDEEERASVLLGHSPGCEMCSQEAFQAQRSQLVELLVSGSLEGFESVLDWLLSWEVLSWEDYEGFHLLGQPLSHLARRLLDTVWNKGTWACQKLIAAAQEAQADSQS
NOD2 117–267 (Q9HC29, residues 117-267): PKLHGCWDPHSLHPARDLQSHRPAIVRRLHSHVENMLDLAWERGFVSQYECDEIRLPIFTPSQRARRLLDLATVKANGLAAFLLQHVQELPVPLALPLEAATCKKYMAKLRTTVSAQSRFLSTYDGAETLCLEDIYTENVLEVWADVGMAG
NOD2 CARD (2) (Q9HC29, residues 135-255): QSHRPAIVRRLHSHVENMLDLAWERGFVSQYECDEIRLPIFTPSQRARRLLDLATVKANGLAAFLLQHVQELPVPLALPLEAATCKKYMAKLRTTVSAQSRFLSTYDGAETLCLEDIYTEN
NOD2 CARD (1+2) D70K (Q9HC29, form named): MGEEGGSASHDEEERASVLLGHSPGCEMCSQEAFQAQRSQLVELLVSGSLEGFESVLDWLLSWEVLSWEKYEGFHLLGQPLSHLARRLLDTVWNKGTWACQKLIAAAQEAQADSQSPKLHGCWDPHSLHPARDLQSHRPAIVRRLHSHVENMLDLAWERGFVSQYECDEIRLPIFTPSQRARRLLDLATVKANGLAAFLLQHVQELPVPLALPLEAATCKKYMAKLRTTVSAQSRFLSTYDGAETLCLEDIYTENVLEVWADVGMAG
NOD2 CARD (1+2) R132Q (Q9HC29, form named): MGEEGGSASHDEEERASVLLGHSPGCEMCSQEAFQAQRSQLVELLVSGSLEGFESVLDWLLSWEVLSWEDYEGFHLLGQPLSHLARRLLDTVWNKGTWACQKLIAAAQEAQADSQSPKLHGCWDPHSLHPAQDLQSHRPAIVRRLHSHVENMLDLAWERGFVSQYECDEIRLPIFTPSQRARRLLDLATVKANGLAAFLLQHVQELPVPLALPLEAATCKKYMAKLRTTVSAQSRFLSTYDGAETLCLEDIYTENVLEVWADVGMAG
NOD2 CARD (1+2) E69K (Q9HC29, form named): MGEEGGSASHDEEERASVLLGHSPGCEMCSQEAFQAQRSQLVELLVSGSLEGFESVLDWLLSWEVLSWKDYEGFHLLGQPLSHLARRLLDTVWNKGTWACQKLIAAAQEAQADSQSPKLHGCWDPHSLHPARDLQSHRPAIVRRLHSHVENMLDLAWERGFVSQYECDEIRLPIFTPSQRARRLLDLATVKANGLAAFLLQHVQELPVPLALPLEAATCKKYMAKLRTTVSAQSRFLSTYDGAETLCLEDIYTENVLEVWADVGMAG
UniProt Q9ULZ3, residues 105-195: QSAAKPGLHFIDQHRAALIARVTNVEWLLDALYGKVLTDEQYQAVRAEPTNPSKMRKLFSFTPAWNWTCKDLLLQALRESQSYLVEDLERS
UniProt P29466, residues 1-91: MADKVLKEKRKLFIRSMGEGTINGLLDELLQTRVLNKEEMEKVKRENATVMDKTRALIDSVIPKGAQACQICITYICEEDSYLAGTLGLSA
UniProt P55211, residues 1-97: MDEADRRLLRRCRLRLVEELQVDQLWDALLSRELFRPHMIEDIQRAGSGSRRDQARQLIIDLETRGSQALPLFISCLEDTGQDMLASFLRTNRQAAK

Where two headings read alike, the source gives them in different places. These are yes or no findings as the source states them, for the method shown. Some binding calls cover weakened binding; strength is not graded here.

For test [1], the target named is T1, NOD1 CARD (16–108) (UniProt Q9Y239).
T1 sequence: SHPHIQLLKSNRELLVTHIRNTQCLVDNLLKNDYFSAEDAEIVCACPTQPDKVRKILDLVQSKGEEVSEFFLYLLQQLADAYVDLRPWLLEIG
In words: two-hybrid; … GAL4 Two-Hybrid System 3, S. cerevisiae AH109 co-transformed with pGBKT7 and pGADT7 fusions; growth on SD/-Ade/-His/-Leu/-Trp, 4 days at 30°C; “each against all” screen (26×26) and later tests with refined constructs.

Test [2] has as its target NOD2 CARD (1+2) (human) (UniProt Q9HC29). Described as above.
For test [3], the target named is T2, NLRC4 CARD (UniProt Q9NPP4).
T2 sequence: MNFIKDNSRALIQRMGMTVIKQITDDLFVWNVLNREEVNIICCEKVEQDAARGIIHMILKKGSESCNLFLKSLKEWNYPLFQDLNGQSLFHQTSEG
The description is as above.

The target in test [4] is T3, NOD1 CARD (1–110) (UniProt Q9Y239).
T3 sequence: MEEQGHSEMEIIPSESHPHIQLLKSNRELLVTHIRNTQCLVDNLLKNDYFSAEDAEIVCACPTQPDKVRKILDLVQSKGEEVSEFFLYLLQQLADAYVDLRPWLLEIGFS
The description is as above.

Test [5] has as its target NOD2 CARD (2) (human) (UniProt Q9HC29). Described as above.
In test [6] the target is T4, NLRP1 CARD (UniProt Q9C000).
T4 sequence: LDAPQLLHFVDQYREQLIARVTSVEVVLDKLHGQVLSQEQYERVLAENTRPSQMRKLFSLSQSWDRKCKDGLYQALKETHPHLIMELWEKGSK
The test is described as above.

Another test concerns the target ASC CARD (UniProt Q9ULZ3). Described as above.
For test [7], the target named is T5, NLRP1 PYD (UniProt Q9C000).
T5 sequence: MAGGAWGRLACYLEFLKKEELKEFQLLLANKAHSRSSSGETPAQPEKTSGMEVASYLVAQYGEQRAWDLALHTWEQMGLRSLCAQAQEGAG
Described as above.

Test [8] deals with NOD2 CARD (1) (human) (UniProt Q9HC29). Described as above.
For test [9], the target named is NOD2 CARD (1+2) (human) (UniProt Q9HC29). In words: two-hybrid; strength of the interaction: transformants spotted on SD/-His/-Leu/-Trp with increasing amounts of 3-aminotriazole (HIS3 reporter).
Test [10] deals with T1, NOD1 CARD (16–108). In words: two-hybrid; … GAL4 Two-Hybrid System 3, S. cerevisiae AH109 co-transformed with pGBKT7 and pGADT7 fusions; growth on SD/-Ade/-His/-Leu/-Trp, 4 days at 30°C; “each against all” screen (26×26) and later tests with refined constructs. This is another data set of the same source.
Test [11] concerns the target T2, NLRC4 CARD. The description is as above. This is another data set of the same source.
In test [12] the target is T3, NOD1 CARD (1–110). Described as above. The source holds these as a separate data set.
Test [13] deals with T4, NLRP1 CARD. The test is described as above. The source holds these as a separate data set.
For test [14], the target named is T5, NLRP1 PYD. The test is described as above. This is another data set of the same source.
The target of test [15] is NOD2 CARD (1+2) (human) (UniProt Q9HC29). The test is described as above. This is another data set of the same source.
In test [16] the target is NOD2 CARD (2) (human) (UniProt Q9HC29). The test is described as above. The source holds these as a separate data set.
Test [17] concerns the target NOD2 CARD (1) (human) (UniProt Q9HC29). The description is as above. The source holds these as a separate data set.
In a further test the target is NOD2 1–163 (human) (UniProt Q9HC29). The test is described as above.
Test [18] addresses NOD2 CARD (1+2) D70K (human) (UniProt Q9HC29). The test is described as above.
Another test deals with NOD2 1–135 (human) (UniProt Q9HC29). The test is described as above.
The target in test [19] is NOD2 CARD (1+2) R132Q (human) (UniProt Q9HC29). The test is described as above.
The target of test [20] is NOD2 CARD (1+2) E69K (human) (UniProt Q9HC29). The test is described as above.
The target in the next test is NOD2 117–267 (human) (UniProt Q9HC29). The test is described as above.

Take “CASP1 CARD (from UniProt P29466 1-91) (domain or fragment)”: the binding result with NOD1 CARD (16–108) [1], in the test with NOD2 CARD (1+2) (human) [2], with NLRC4 CARD [3], with NOD1 CARD (1–110) [4], with NOD2 CARD (2) (human) [5] and in the test with NLRP1 CARD [6] was “no binding” each time. Further, the binding result with ASC CARD is given as “binds”; in the test with NLRP1 PYD [7], “no binding”; in the test with NOD2 CARD (1) (human) [8] it was “no binding”.
Turning to “NOD2 CARD (1+2) (from UniProt Q9HC29 1-267) (domain or fragment)”, the results for the binding result with NOD2 CARD (1+2) (human) [9] and in the test with NOD2 CARD (1+2) (human) [2] were “binds weakly” and “binds”, respectively.
Take “CASP9 CARD (from UniProt P55211 1-97) (domain or fragment)”: the binding result with NOD1 CARD (16–108) [1], with NOD2 CARD (1+2) (human) [2], with NOD1 CARD (1–110) [4], with NOD2 CARD (2) (human) [5], with NLRP1 CARD [6] and with NLRP1 PYD [7] was “no binding” each time. The binding result in the test with NOD2 CARD (1) (human) [8] is “no binding”.

B1: NLRP1 PYD (domain or fragment, UniProt Q9C000 1-91)
chain: T5 sequence
Regarding B1, the binding result in the test with NOD1 CARD (16–108) [10], in the test with NLRC4 CARD [11], with NOD1 CARD (1–110) [12], with NLRP1 CARD [13] and with NLRP1 PYD [14] was “no binding” each time.

B2: CASP2 CARD (domain or fragment, UniProt P42575 32-121)
chain: MHPHHQETLKKNRVVLAKQLLLSELLEHLLEKDIITLEMRELIQAKVGSFSQNVELLNLLPKRGPQAFDAFCEALRETKQGHLEDMLLTT
On to B2, for which the binding result with NOD1 CARD (16–108) [10], with NOD2 CARD (1+2) (human) [15], in the test with NOD1 CARD (1–110) [12], in the test with NOD2 CARD (2) (human) [16], with NLRP1 CARD [13] and with NLRP1 PYD [14] was “no binding” throughout. For the same molecule, in the test with NOD2 CARD (1) (human) [17], the binding entry is given as “no binding”.

B3: NLRP1, PYD+linker (domain or fragment, UniProt Q9C000 1-341)
chain: MAGGAWGRLACYLEFLKKEELKEFQLLLANKAHSRSSSGETPAQPEKTSGMEVASYLVAQYGEQRAWDLALHTWEQMGLRSLCAQAQEGAGHSPSFPYSPSEPHLGSPSQPTSTAVLMPWIHELPAGCTQGSERRVLRQLPDTSGRRWREISASLLYQALPSSPDHESPSQESPNAPTSTAVLGSWGSPPQPSLAPREQEAPGTQWPLDETSGIYYTEIREREREKSEKGRPPWAAVVGTPPQAHTSLQPHHHPWEPSVRESLCSTWPWKNEDFNQKFTQLLLLQRPHPRSQDPLVKRSWPDYVEENRGHLIEIRDLFGPGLDTQEPRIVILQGAAGIGKS
In the case of B3, the binding entry with NOD2 CARD (1+2) (human) [15] is on record as “binds”; with NOD1 CARD (1–110) [12], “no binding”; in the test with NOD2 1–163 (human), “no binding”; in test [18], “no binding”; with NOD2 1–135 (human) it was “no binding”; in test [19] it was “binds”. Further, the binding result in the test with NOD2 CARD (2) (human) [16] is reported as “no binding”; in [20], “binds”; in the test with NOD2 117–267 (human), “no binding”; in the test with NOD2 CARD (1) (human) [17], “no binding”.
